Results are given in words; binding and its absence hold for the method and conditions named. In cells and extracts the contact can be indirect. Some entries that bind do so weakly or less than the wild type.
Target: forkhead box O1 class (FOXO1) (mouse (endogenous in HL-1)) (UniProt Q9R1E0)
Experiment: co-IP; HL-1 cells, sham or infected with CVB3 for 48 h; lysate precipitated with anti-FOXO1 antibody (Pierce Classic Magnetic IP/Co-IP Kit), blotted for the partner

Amino acid sequences for entries named in this document (tags omitted).
UniProt Q9R1E0: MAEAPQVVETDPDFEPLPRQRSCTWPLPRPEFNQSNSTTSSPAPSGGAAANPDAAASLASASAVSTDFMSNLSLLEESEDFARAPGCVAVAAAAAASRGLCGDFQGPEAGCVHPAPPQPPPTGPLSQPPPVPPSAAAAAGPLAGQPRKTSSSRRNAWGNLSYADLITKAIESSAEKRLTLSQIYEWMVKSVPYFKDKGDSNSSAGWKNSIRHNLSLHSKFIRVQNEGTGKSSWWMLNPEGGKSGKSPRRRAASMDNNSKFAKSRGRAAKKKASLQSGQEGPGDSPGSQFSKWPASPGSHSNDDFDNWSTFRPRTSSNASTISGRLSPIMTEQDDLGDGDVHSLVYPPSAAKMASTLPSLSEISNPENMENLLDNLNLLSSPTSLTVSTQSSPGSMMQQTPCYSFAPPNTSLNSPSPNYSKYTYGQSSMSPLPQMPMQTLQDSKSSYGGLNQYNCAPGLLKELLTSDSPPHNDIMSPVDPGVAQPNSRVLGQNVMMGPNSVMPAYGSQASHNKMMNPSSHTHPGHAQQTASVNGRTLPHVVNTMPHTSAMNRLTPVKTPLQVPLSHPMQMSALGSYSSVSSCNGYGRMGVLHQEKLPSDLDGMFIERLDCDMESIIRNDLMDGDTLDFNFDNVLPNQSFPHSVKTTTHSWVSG
UniProt P45481: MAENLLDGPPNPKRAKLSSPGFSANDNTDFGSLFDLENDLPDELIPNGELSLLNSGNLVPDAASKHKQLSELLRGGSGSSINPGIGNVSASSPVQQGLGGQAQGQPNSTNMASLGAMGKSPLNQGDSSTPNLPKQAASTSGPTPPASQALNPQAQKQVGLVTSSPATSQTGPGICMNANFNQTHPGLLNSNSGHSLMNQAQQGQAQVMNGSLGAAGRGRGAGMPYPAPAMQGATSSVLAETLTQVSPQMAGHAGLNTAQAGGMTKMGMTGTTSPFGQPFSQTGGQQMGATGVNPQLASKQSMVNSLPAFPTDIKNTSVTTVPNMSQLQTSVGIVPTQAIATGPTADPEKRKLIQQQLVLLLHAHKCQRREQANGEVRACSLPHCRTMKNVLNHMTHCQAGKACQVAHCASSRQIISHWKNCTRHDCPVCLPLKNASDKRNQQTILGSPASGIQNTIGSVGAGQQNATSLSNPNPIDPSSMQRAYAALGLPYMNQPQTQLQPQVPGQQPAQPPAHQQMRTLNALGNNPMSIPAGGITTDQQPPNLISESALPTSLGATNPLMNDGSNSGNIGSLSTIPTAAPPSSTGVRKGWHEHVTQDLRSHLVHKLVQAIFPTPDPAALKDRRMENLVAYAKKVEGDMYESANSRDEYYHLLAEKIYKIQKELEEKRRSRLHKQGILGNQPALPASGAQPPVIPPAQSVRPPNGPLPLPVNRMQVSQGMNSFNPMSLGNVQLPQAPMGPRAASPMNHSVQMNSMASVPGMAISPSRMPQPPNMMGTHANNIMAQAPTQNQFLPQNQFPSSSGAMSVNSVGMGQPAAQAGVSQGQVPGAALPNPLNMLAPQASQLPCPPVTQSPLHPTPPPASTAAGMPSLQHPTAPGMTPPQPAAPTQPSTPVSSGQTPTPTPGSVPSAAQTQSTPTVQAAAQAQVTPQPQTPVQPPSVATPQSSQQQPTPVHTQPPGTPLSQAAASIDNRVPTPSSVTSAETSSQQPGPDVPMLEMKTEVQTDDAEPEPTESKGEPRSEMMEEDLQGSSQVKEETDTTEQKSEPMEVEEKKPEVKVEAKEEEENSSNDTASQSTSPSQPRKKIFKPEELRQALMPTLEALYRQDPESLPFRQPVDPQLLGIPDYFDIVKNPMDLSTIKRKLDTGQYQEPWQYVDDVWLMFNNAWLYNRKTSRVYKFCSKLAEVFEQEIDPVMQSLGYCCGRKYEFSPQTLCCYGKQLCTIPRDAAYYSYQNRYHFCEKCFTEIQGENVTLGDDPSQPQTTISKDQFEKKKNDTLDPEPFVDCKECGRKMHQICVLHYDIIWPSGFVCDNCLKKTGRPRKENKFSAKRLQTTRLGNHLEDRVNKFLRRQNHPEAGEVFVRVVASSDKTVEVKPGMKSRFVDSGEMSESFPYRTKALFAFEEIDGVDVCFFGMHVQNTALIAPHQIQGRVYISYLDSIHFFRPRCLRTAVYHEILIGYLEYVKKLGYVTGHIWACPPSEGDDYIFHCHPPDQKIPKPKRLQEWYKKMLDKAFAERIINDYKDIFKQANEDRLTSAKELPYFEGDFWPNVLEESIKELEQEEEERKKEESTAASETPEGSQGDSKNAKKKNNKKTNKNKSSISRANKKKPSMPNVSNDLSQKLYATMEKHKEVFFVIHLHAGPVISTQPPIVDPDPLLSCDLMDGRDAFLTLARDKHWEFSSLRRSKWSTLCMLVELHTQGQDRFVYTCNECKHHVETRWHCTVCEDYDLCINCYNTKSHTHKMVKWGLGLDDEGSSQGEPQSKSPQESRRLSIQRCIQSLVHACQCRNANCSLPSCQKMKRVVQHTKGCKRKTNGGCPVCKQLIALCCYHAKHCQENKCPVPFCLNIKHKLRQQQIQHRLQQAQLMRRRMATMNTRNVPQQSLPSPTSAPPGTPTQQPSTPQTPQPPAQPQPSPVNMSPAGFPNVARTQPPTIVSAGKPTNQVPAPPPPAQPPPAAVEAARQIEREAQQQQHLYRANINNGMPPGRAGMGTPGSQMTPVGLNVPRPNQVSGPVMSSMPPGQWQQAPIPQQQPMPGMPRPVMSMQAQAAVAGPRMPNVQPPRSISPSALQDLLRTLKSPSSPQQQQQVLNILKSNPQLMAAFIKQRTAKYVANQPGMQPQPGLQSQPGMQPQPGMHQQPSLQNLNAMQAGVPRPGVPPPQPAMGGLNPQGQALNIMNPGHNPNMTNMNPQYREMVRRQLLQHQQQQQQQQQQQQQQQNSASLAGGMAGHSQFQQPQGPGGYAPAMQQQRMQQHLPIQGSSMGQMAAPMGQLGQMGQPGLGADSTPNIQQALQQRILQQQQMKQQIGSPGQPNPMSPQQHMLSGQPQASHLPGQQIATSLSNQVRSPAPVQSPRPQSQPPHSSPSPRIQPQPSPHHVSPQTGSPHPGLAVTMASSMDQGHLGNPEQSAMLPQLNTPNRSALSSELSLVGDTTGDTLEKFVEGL

binding: binds
Substance: CBP (from UniProt P45481 1-2441) (enzyme)
